No constants are given. Whether binding was seen depends on the method and setting. In cells and extracts the contact can be indirect. Some results given as binding are weak or reduced against the parent protein; the word gives no strength.
How the values were obtained:
biotin-labeled NEW (…) = target: T1, biotin-labeled NEW (…); assay: pull-down; biotinylated peptide (25 µM) on streptavidin magnetic beads incubated with MDA-MB231 cell lysate at room temperature 30-60 min; eluted with 2 mM D-biotin; immunoblot with anti-CD44v6, anti-c-Met and anti-CD44 antibodies; only the target purified
T1 sequence (peptide, biotin at the amino-terminus): CNEWQLKSC

Chains of the proteins cited; added tags and fusions are not shown. Residues count along the entry.
UniProt P08581, residues 25-1390: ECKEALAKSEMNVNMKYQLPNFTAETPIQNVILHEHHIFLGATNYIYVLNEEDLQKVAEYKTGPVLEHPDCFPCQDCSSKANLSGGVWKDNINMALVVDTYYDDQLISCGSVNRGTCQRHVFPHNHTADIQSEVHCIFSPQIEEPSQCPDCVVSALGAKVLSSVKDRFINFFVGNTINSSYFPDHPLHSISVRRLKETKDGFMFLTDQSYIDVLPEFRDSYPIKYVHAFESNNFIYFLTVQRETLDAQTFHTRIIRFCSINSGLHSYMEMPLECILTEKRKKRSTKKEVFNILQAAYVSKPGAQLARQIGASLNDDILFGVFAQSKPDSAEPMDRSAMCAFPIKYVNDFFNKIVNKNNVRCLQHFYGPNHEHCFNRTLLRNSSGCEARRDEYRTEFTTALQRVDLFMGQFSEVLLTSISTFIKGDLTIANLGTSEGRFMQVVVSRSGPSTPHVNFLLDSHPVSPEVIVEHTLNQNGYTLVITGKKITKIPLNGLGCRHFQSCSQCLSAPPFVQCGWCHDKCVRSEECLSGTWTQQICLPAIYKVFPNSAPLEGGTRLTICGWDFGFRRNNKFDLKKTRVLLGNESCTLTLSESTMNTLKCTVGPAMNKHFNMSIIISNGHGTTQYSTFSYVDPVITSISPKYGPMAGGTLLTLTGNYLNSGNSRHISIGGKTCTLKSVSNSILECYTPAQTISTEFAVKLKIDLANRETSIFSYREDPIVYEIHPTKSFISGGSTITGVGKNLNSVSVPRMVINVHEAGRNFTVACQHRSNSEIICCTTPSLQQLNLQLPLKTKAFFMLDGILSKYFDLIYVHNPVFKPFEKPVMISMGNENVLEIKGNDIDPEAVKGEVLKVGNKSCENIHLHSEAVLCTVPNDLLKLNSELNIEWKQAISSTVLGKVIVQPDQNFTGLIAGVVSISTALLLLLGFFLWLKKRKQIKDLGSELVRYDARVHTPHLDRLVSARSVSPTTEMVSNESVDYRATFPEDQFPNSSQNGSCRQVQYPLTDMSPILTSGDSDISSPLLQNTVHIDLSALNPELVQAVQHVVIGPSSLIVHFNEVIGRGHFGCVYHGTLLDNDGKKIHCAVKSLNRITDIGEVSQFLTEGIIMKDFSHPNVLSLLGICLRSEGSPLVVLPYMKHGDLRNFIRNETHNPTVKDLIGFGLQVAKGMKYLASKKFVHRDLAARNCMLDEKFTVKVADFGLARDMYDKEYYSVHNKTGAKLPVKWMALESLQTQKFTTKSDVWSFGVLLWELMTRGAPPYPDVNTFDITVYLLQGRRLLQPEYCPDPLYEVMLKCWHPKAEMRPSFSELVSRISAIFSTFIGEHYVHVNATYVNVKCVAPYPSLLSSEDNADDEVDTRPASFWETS

biotin-labeled NLN (…) = target: T2, biotin-labeled NLN (…); assay: as above
T2 sequence (peptide, biotin at the amino-terminus): CNLNTIDTC

binding (biotin-labeled NEW (…)): no binding | binding (biotin-labeled NLN (…)): binds
Substance: c-Met receptor tyrosine kinase, endogenous in MDA-MB231 cells (from UniProt P08581 25-1390)
